The values below come from PubChem BioAssay AID1347423 (Functional Genomics Laboratory (NCATS/FGL), 2020).

Screen size: about 52,000 sequences; about 210 (0.4%) were called active.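 Rule for the calls: active = gene whose silencing raises cell survival under the drug, median off-target-corrected z-score across its silencing RNAs 2 or more; inactive = the rest.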 This is one part of the list.

The nature of the assay: Resistance to Poly (ADP-Ribose) Polymerase inhibitor: Gene Identification via Genome-wide siRNA Screen. The settings on record: mouse BRCA2 R2336H ES cells, olaparib, CellTiter-Glo viability; stronger effect = higher value. The method, boiled down: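 Mouse BRCA2 R2336H ES cells were reverse-transfected with siRNA (20 nM final), treated at 48 h with 500 nM olaparib, and read by CellTiter-Glo after 72 h. Scores: MAD-based z per siRNA, median per gene, seed off-target correction.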
On to GGCCGGAAACUAAUCAGACTT against Mcm10, for which the z-score is inactive: -0.104.

Regarding CCUGUCGUCUCUCACUAGATT against Zfp9, the z-score was inactive: -0.868.

Consider GGUCGAAAGAAGGCCUUUATT against Olfr131, for which the z-score is inactive: -1.27. With GGGUUGAAUUCAGGUUCAATT against Rsad1, the z-score is inactive: 2.27. Consider GGAUGAUGAAGUCAAAUUUTT against Pres, for which the z-score is inactive: 0.837. Then “GGUCAGUGAAGUUUAACAATT against 2310046O06Rik”, with inactive: -0.841; and GGGCUAUGUAUUGUAAAUGTT against Nxf1, with inactive: -3.05; and GGAGUUUACAGAAAUUAUCTT against Pecam1, with inactive: 0.314. Turning to GGAGAUUAACCGCACUAUCTT against Snx19, the z-score is inactive: 0.462. As for GCCAGAUCUGUUAACCGCCTT against Gzmk, the z-score is inactive: 0.0434. Turning to GGAGCUUAGCCUCUGUAUGTT against D10Jhu81e, the z-score is inactive: 0.665.

Consider GCCGAUACUUGAGCCAGUUTT against Srd5a1, for which the z-score was inactive: -1.17. As to GCAGUUUAAGAGAAUAAGGTT against Apaf1, the z-score is inactive: 2.1.

As to GCCUACCACGAAGCACUUUTT against Cd38, the z-score is inactive: -0.469. As for “CCAUAUGAAGGCGCAUGGATT against C330029B10Rik”, the z-score was inactive: -0.126.

Consider “CGUGUACUCCUGGUUUCCCTT against 1700129L13Rik”, for which the z-score is inactive: 0.655. To GGCAAACCUGAAUUUACGGTT against Pcdha9 belongs inactive: 0.794; to GGCUCCAGUAAUUGAUAAATT against Sycp3, inactive: -0.903.

Take GGCAGUGUUUUGUCAAGUUTT against Fgd4: the z-score is inactive: -0.65. As for GGCCAAAGAGAUAUAUAUATT against Rassf3, the z-score is inactive: -1.2. GCUUUCGUGUGAUCUUUUATT against BC005682: the z-score was inactive: 0.975. Regarding GGUCUGAUUUUCAACACCUTT against Aqp6, the z-score was inactive: -0.0489.

As for CCAUCAUUCUCUGGUCAAATT against Sdha, the z-score is inactive: 0.924. Turning to GGGAUAGUUACAUCGAAGUTT against Acate2, the z-score was inactive: -0.444. In the case of GGAUUUACUUCACUAAUCCTT against V2r14, the z-score was inactive: 0.14. CGCCUUCAUAAUGUAGUUGTT against Defb37: the z-score is inactive: -1.15. Then GGCUUUUUAGGAAACUAUATT against Olfr361, with inactive: -0.363.

“GGAGAUCCAGAAGAGACGATT against 9030408N13Rik”: the z-score was inactive: 1.3.

For the sequence GGAAGUUUUGUUCCUGCAUTT against AI875199, the z-score is inactive: -2.2. To GGAGACUUAAAGGACAAAUTT against Phf17 belongs inactive: -0.534; to GCCACCUAAUUUACAAUCUTT against Nov, inactive: 1.41. For GGCACGAUGGUUCAUCCUUTT against Plek2, the z-score is inactive: 1.94.

Consider GCUCGUCAGCAGUAAGAAUTT against Nmbr, for which the z-score was inactive: -2.27. As to GGCCUGUCCAAAGAAGUGATT against E2f3, the z-score was inactive: 1.01.

As to GCUCAAACGAAAUGAUUCATT against Gys2, the z-score was inactive: 1.61. To CCAUUUAUGGAAUACACCUTT against BC022651 belongs inactive: 0.253; to GGAGUAUGAUAAUGAACCATT against Areg, inactive: -0.741; to CCUUGUAGUAAUAGGGAUGTT against Olfr116, inactive: -2.33. On to CGCAGGAUCUUAAAGAGCATT against Naga, for which the z-score was inactive: 1.84.

Turning to GGAGCUUCAAGGUCUGUCGTT against Tmc6, the z-score was inactive: 1.73.

Regarding CGGAACGAUCCGGAACAUCTT against Idh2, the z-score was inactive: -0.892. “GGUGCUUAAAACAGAAAGATT against 4732465J09Rik”: the z-score is inactive: -0.891. To CGUAUUUAUUGACUCACUATT against Klhl17 belongs inactive: -0.506. In the case of AUGACUAACAUUUUCCACCTT against Tpbpb, the z-score was inactive: 0.0162. GCCUGAGCUUUACAAGCAGTT against Syt6: the z-score is inactive: 1.06. To GGCUGUGGUAGAAAAGCUGTT against Hspg2 belongs inactive: 0.216; to GGGAAGGUGGUGGAUCUACTT against Adss2, inactive: -0.357. On to GCCAGUAACUCAACAGAAGTT against Umod, for which the z-score is inactive: 0.779. As for CCAAGCUAUUGGCCCUGACTT against Defb38, the z-score is inactive: -1.01.

On to “GGUACCUGAAAAAAACAAATT against 0610027O18Rik”, for which the z-score was inactive: 0.282. Consider GGGAUAGUUACCUAAGACATT against Adarb2, for which the z-score is inactive: -0.0445.

As for CCCAUAGUGAAUCAUAGUGTT against Olfr225, the z-score is inactive: 0.536. Then GGAAAGAUCUUAUAAUGUGTT against Zfp85-rs1, with inactive: -0.656; and GGAUGUCCACAUCAAGGCUTT against Dscam, with inactive: 0.0516; and CCCAAGCAAAUGGUGUAAUTT against Rab5a, with inactive: 1.34. Consider GGUGCAAGUGCAGUUUCAATT against Fxyd6, for which the z-score is inactive: 1.47. Regarding GGUUGUUUUGCAUUUGUGUTT against Slc25a14, the z-score is inactive: 0.124.

GGUAUAGCGGUGCAUGUCATT against Bmp8a: the z-score is inactive: -0.208. As for GCCUGUAAGAUCACUAAAATT against Atxn7l1, the z-score was inactive: 2.15. As for CGAUCAUUAUGAACAGAUUTT against Olfr48, the z-score was inactive: -0.949. As for GGCUUCAAUGCCAAUCGGATT against Kcnh3, the z-score was inactive: 0.297. For GGGCAAGUACCCAAUAAGATT against Cyp27a1, the z-score is inactive: 0.292. For GGGCUAAGGCGAAAAGACUTT against Msx2, the z-score was inactive: -0.731. As to GGGCAAGUACAAGCGUAACTT against Jph4, the z-score was inactive: 2.37.

With CGACAAGUACGAGAACGGUTT against Tcf21, the z-score was inactive: -0.757. With CCGGCUUUAUAAUUAGGAUTT against Olfr948, the z-score was inactive: 1.1. As for GCAAUGAGGAGUAUAUGUATT against Rfx5, the z-score is inactive: -0.826. For CCACUGUCCUGAUUUCUUATT against Olfr1037, the z-score was inactive: -0.116.

As for CGAUUUCGCCAUCUUUGGATT against Tpk1, the z-score was inactive: 1.06.

As for GCUAUAGCCCUAGAGCUAUTT against Psmb4, the z-score is inactive: 0.209. Then “GCAAGAGGGUUACAGUUAGTT against 2610001J05Rik”, with inactive: -0.361; and GCGACACAGAUUCAGAGAATT against LOC434008, with inactive: 1.25. Regarding “GGACUUCACAAGACUUCAATT against 4921501M20Rik”, the z-score is inactive: -0.42.

GCUGAAAAGUAGAGUUAAATT against Pcm1: the z-score is inactive: 0.753. Then GGAAUGUGUGAGUGAAUUUTT against Nfyb, with inactive: -1.65; and GGUGAUGAUGAUGUCUUUGTT against B3gnt7, with inactive: -0.107. With GGGUGAAUUUCCACCUUAUTT against Sgce, the z-score is inactive: -1.49. On to GGAGUACGAAUUCCUCACUTT against Arhgdib, for which the z-score was inactive: 0.935. Consider GGAAGUAGCCCAGAAGUGUTT against Rad51l3, for which the z-score is inactive: 0.307.

For “GGUAUCUAUGGAGGUUAUUTT against 0610031J06Rik”, the z-score is inactive: -1.01. For the sequence GGGAUGCUAACAGGUGUCATT against BC021917, the z-score was inactive: -0.386. Take GGUUCCAACAGGAGAGAACTT against Crsp3: the z-score was inactive: -1.36. For the sequence “UUUCAACUGAAUUGCACUUTT against 4930471G03Rik”, the z-score was inactive: 1.91. Regarding GGUUAAAAUUUGGUUUCAGTT against Cdx2, the z-score is inactive: 0.33.

For the sequence GCCACUAAGAUUGUCAUCGTT against Tacr3, the z-score was inactive: -0.805. “GCCACUCUGUCAAUUAACATT against 6030404E16Rik”: the z-score was inactive: -1.27. Then CGGGAAAGUACUGUAGAAATT against Cdc42se1, with inactive: -0.296; and GGAGUACUUCCCUGUGAUCTT against Magea6, with inactive: -0.156; and GCACGAACAAAAUGAAUACTT against Insl6, with inactive: -0.219.

Regarding CGGACACUUUCACCUUCAATT against C77080, the z-score was inactive: 0.521. For the sequence GGUAGUUAAUCAGUGUAAATT against Rps6kb1, the z-score is inactive: 0.3. Turning to GGUGCACAGAUGUCUUACCTT against Sec24d, the z-score was inactive: -0.903.

As to “GGUCUUACUCAAAAACCAATT against 6330416G13Rik”, the z-score is inactive: -1.17. Then GGAAGCUUACUUUUCUCUATT against BC021395, with inactive: 0.441; and GCACAGACAUCUUUUGCCATT against Man2a2, with inactive: -0.333. Consider “CCUAUCUCAUACCUACAUGTT against 2810474O19Rik”, for which the z-score was inactive: 0.158. Consider GCUCAAUGACAGACUAGCCTT against Dusp3, for which the z-score was inactive: -0.763.

In the case of “GGAUUUUCUACUUAGCAACTT against 9630013D21Rik”, the z-score is inactive: -0.106. For the sequence “GCCAUCAUACUGUCACCAGTT against 2610042O14Rik”, the z-score was inactive: -0.341.

In the case of GGACUAGCACUUUAUGUUUTT against Strm, the z-score is inactive: 0.544. To CCUAUGAACUCUUAACCAATT against Pgd belongs inactive: -2.07; to “GGUUAGUCGACAGAAACAATT against 4921537P18Rik”, inactive: -1.81; to GGAAGAAAUGGACCAGCUGTT against Brp16, inactive: -1.27.

Take GGCAAACGAAACACUAGCATT against Cacna1d: the z-score was inactive: 1.15. “GCAUUUCCCAGCCUGAUACTT against 2810003C17Rik”: the z-score was inactive: -0.751.
